Here are results for three molecules from publication PMC7072741.

No constants are given. Whether binding was seen depends on the method and setting. Binding seen in cells or lysates may run through a third protein. Binding can be weak; no strength is given. Where a sequence is shown, tags or fusion partners need not be part of it.

To fix the notation:
B1: His-LASP1 phosphorylated at S146 by the constitutive active C-subunit of PKA (protein, UniProt Q14847 1-261)
chain: MNPNCARCGKIVYPTEKVNCLDKFWHKACFHCETCKMTLNMKNYKGYEKKPYCNAHYPKQSFTMVADTPENLRLKQQSELQSQVRYKEEFEKNKGKGFSVVADTPELQRIKKTQDQISNIKYHEEFEKSRMGPSGGEGMEPERRDSQDGSSYRRPLEQQQPHHIPTSAPVYQQPQQQPVAQSYGGYKEPAAPVSIQRSAPGGGGKRYRAVYDYSAADEDEVSFQDGDTIVNVQQIDDGWMYGTVERTGDTGMLPANYVEAI
modifications: phosphoserine at 146
B2: His-LASP1 phosphorylated at Y171 by active Lyn kinase (protein, UniProt Q14847 1-261)
chain: B1 chain
modifications: phosphotyrosine at 171
B3: His-LASP1 (unphosphorylated recombinant His-tagged LASP1) (protein, UniProt Q14847 1-261)
chain: B1 chain

The target in this assay is GST-CXCR4 (recombinant C-terminus of CXCR4 bound to GST). Kind of assay: pull-down; His-LASP1 (unphosphorylated or phosphorylated) with the recombinant C-terminus of CXCR4 bound to GST; the paper calls it co-immunoprecipitation; LASP1 forms detected by Western blot; both purified. For orientation: In western blotting, separated proteins are transferred to a membrane and probed.
Consider B1, for which the binding result is recorded as “binds”.
On to B2, for which the binding result was “no binding”.
Turning to B3, the binding result is listed as “no binding”.
